Results taken from PubChem BioAssay AID256 (DTP/NCI, 2004).
The list shows only some results of the screen, not a fair sample: it gathers tests that were run many times, whatever their T/C, doses with no T/C, and many T/C values between a quarter and a half above the control. Further doses and runs are listed elsewhere. T/C is the treated group as % of the vehicle group. Some doses have a count of surviving animals in place of a T/C: the source holds a T/C of zero for them, seemingly a mark for toxic or unscored doses. Some survivor counts are full or nearly so, which does not show that the dose was tolerated: the source hardly ever lists a survival T/C far under the control, and the zero likely stands for such cases as well. Counts of survivors are from the toxicity check (mostly the fifth day) where no day follows; animals may have died later. Schedules are NCI's codes, read here as Q, the interval in days (D) or hours (H), X, the number of doses. Some entries hold several experiments; the values are given in rising order. For survival time, this PubChem deposit counts one and a half times the control or more as active, and values a quarter to a half above the control carry no call in these data; other NCI protocols may use other cut-offs.

System: CD2F1 mice, L1210 leukemia ip, survival T/C
Test: NCI In Vivo Anticancer Drug Screen. Data for tumor model L1210 Leukemia (intraperitoneal) in CD2F1 (CDF1) mice
Conditions: higher T/C = longer survival
Method in brief: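 Tumor-bearing mice (transplanted tumor) were split into treated and vehicle control groups, and the measured endpoint of each treated group was divided by that of its vehicle controls.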

[1] = T/C endpoint: mean survival time, dose: 400.0 mg/kg/injection, schedule: Q04DX003 (ip), vehicle: saline with Tween-80
[2] = T/C endpoint: mean survival time, dose: 150.0 mg/kg/injection, schedule: Q01DX001 (ip), vehicle: other
[3] = T/C endpoint: mean survival time, dose: 300.0 mg/kg/injection, schedule: Q01DX001 (ip), vehicle: other
[4] = T/C endpoint: mean survival time, dose: 400.0 mg/kg/injection, schedule: Q01DX001 (ip), vehicle: saline
[5] = T/C endpoint: mean survival time, dose: 200.0 mg/kg/injection, schedule: Q01DX009 (ip), vehicle: saline with Tween-80
[6] = T/C endpoint: mean survival time, dose: 50.0 mg/kg/injection, schedule: Q01DX009 (ip), vehicle: saline with Tween-80
[7] = T/C endpoint: mean survival time, dose: 100.0 mg/kg/injection, schedule: Q04DX003 (ip), vehicle: saline
[8] = T/C endpoint: mean survival time, dose: 400.0 mg/kg/injection, schedule: Q04DX003 (ip), vehicle: saline
[9] = T/C endpoint: mean survival time, dose: 200.0 mg/kg/injection, schedule: Q04DX003 (ip), vehicle: saline with Tween-80

CC(=O)C1CCC2C3CCC4=CC(=O)CC4(C)C3CCC12C (configuration not stated)
survivor count [1]: 5 of 6

CCCCCCCCN(C)C
survivor count (T/C endpoint: mean survival time, dose: 100.0 mg/kg/injection, schedule: Q01DX009 (ip), vehicle: saline with Tween-80): 4 of 6

c1ccc(C(Nc2ncnc3nncnc23)c2ccccc2)cc1
survivor count [2]: 2 of 6 | survivor count [3]: 0 of 6

Cn1c(-c2ccccc2)nc2c(N)ncnc21
survivor count (T/C endpoint: mean survival time, dose: 200.0 mg/kg/injection, schedule: Q01DX001 (ip), vehicle: saline with Tween-80): 6 of 6

O=C(O)CC(O)C(=O)O.[Fe] (configuration not stated)
survivor count (T/C endpoint: mean survival time, dose: 200.0 mg/kg/injection, schedule: Q01DX001 (ip), vehicle: saline): 3 of 6 | survivor count [4]: 1 of 6

C=CCOC(=N)C(Cl)(Cl)Cl
survivor count [5]: 3 of 3

S=C(N/N=C1/CCCC/C1=N/NC(=S)N1CCOCC1)N1CCOCC1
survivor count (T/C endpoint: median survival time, dose: 25.0 mg/kg/injection, schedule: Q01DX009 (ip), vehicle: saline with Tween-80): 4 of 6

C1=CC2C3=CC1C=CC32 (configuration not stated)
survivor count (T/C endpoint: mean survival time, dose: 400.0 mg/kg/injection, schedule: Q01DX009 (ip), vehicle: acetone): 4 of 6

ClC(c1ccccc1)C(Cl)c1ccccc1 (configuration not stated)
survivor count (T/C endpoint: mean survival time, dose: 25.0 mg/kg/injection, schedule: Q01DX009 (ip), vehicle: saline with Tween-80): 3 of 3 | survivor count [6]: 2 of 3

Clc1ccc2c(c1)Cc1cc(N=Cc3ccccc3Cl)ccc1-2
survivor count (T/C endpoint: mean survival time, dose: 225.0 mg/kg/injection, schedule: Q01DX009 (ip), vehicle: saline with Tween-80): 1 of 6 | survivor count (T/C endpoint: mean survival time, dose: 385.0 mg/kg/injection, schedule: Q01DX009 (ip), vehicle: saline with Tween-80): 0 of 6

Fc1ccc(Nc2c3ccccc3nc3ccccc23)cc1
survivor count [5]: 2 of 6 | survivor count (T/C endpoint: mean survival time, dose: 400.0 mg/kg/injection, schedule: Q01DX009 (ip), vehicle: saline with Tween-80): 0 of 6

NNc1ccc2ccccc2n1
survivor count [7]: 0 of 6 | survivor count (T/C endpoint: mean survival time, dose: 200.0 mg/kg/injection, schedule: Q04DX003 (ip), vehicle: saline): 0 of 6 | survivor count [8]: 0 of 6

CCC(Cc1ccccc1)C1=NC(C)(C)CC(C)O1 (configuration not stated)
survivor count (T/C endpoint: mean survival time, dose: 400.0 mg/kg/injection, schedule: Q01DX001 (ip), vehicle: saline with Tween-80): 0 of 6

CC(=O)OC12C=C(C)C(C3C(=O)OC(=O)C31)C(C)(C)C2 (configuration not stated)
survivor count [4]: 2 of 6

Cc1ccc2c(c1)C1(C)OC(C=CC1=O)O2 (configuration not stated)
survivor count (T/C endpoint: median survival time, dose: 50.0 mg/kg/injection, schedule: Q01DX005 (ip), vehicle: Klucel (hydroxypropylcellulose) (HPC)): 3 of 6 | survivor count (T/C endpoint: median survival time, dose: 100.0 mg/kg/injection, schedule: Q01DX005 (ip), vehicle: Klucel (hydroxypropylcellulose) (HPC)): 0 of 6 | survivor count (T/C endpoint: median survival time, dose: 200.0 mg/kg/injection, schedule: Q01DX005 (ip), vehicle: Klucel (hydroxypropylcellulose) (HPC)): 0 of 6 | survivor count (T/C endpoint: median survival time, dose: 400.0 mg/kg/injection, schedule: Q01DX005 (ip), vehicle: Klucel (hydroxypropylcellulose) (HPC)): 0 of 6

CN(C)CCCN1c2ccccc2Sc2ccc(Cl)cc21
survivor count [6]: 2 of 6 | survivor count [7]: 6 of 6 | survivor count [8]: 2 of 6 | T/C (T/C endpoint: median survival time, dose: 50.0 mg/kg/injection, schedule: Q01DX001 (ip), vehicle: water): 125 % of control

CO[C@@]12[C@@H]3N[C@@H]3CN1C1=C(C(=O)C(Nc3nc(C)cs3)=C(C)C1=O)[C@@H]2COC(N)=O
T/C (T/C endpoint: mean survival time, dose: 3.0 mg/kg/injection, schedule: Q01DX001 (ip), vehicle: water): 127 % of control | T/C (T/C endpoint: mean survival time, dose: 6.0 mg/kg/injection, schedule: Q01DX001 (ip), vehicle: water): 130 % of control | T/C (T/C endpoint: mean survival time, dose: 12.0 mg/kg/injection, schedule: Q01DX001 (ip), vehicle: water, evaluated on day 30): 127 % of control | T/C (T/C endpoint: mean survival time, dose: 12.0 mg/kg/injection, schedule: Q01DX001 (ip), vehicle: water, evaluated on day 35): 128 % of control | survivor count (T/C endpoint: mean survival time, dose: 24.0 mg/kg/injection, schedule: Q01DX001 (ip), vehicle: water): 0 of 6 and 1 of 6

C=CC(N)=O
survivor count (T/C endpoint: mean survival time, dose: 100.0 mg/kg/injection, schedule: Q01DX009 (ip), vehicle: saline): 0 of 6

CCOC(=O)Nc1nccs1
survivor count [5]: 3 of 6 | survivor count (T/C endpoint: mean survival time, dose: 400.0 mg/kg/injection, schedule: Q04DX003 (ip), vehicle: Klucel (hydroxypropylcellulose) (HPC)): 0 of 3

Clc1ccc(Sc2ccc(Cl)cc2)cc1
survivor count [1]: 5 of 6

CC1C2CCC(C2)C1OC(=O)c1ccccc1C(=O)O (configuration not stated) (tested in a mixture with another compound)
survivor count [5]: 3 of 6 | survivor count [1]: 1 of 6

Cc1ccc(/C=N\N=C\c2ccc(C)cc2)cc1
survivor count [9]: 6 of 6

CN(C)CCP(c1ccccc1)c1ccccc1
survivor count [2]: 0 of 6 | survivor count [3]: 0 of 6

O=C1OC(=O)C2CCCC3CCCC1C32 (configuration not stated)
survivor count (T/C endpoint: mean survival time, dose: 400.0 mg/kg/injection, schedule: Q04DX002 (ip), vehicle: saline with Tween-80): 0 of 3

CN(C)c1ccc2nc(CC(O)(C(F)(F)F)C(F)(F)F)ccc2c1
survivor count [9]: 6 of 6 | survivor count [1]: 6 of 6

O=C1C=CC(=O)C=C1 (tested in a mixture with another compound)
survivor count (T/C endpoint: mean survival time, dose: 6.25 mg/kg/injection, schedule: Q04DX003 (ip), vehicle: saline with Tween-80): 6 of 6 | survivor count (T/C endpoint: mean survival time, dose: 12.5 mg/kg/injection, schedule: Q04DX003 (ip), vehicle: saline with Tween-80): 4 of 6 | survivor count (T/C endpoint: mean survival time, dose: 25.0 mg/kg/injection, schedule: Q04DX003 (ip), vehicle: saline with Tween-80): 2 of 6 | survivor count (T/C endpoint: mean survival time, dose: 50.0 mg/kg/injection, schedule: Q04DX003 (ip), vehicle: saline with Tween-80): 0 of 6 | survivor count (T/C endpoint: mean survival time, dose: 100.0 mg/kg/injection, schedule: Q04DX003 (ip), vehicle: saline with Tween-80): 1 of 6

Cc1ccc(S(=O)(=O)Nc2ccccc2)c(CC(O)(c2ccccc2)c2ccccc2)c1
survivor count [1]: 6 of 6

O=c1[nH]c(=O)n(C2CC(O)C(CO)O2)cc1S (configuration not stated)
T/C (T/C endpoint: mean survival time, dose: 50.0 mg/kg/injection, schedule: Q01DX005 (ip), vehicle: water): 125 % of control | T/C (T/C endpoint: mean survival time, dose: 100.0 mg/kg/injection, schedule: Q01DX005 (ip), vehicle: water): 129 % of control | T/C (T/C endpoint: mean survival time, dose: 200.0 mg/kg/injection, schedule: Q01DX005 (ip), vehicle: water): 127 and 137 % of control | T/C (T/C endpoint: mean survival time, dose: 400.0 mg/kg/injection, schedule: Q01DX005 (ip), vehicle: water): 129 % of control

CN(C)C(=Nc1ccccc1)N(C)N
survivor count (T/C endpoint: mean survival time, dose: 300.0 mg/kg/injection, schedule: Q01DX001 (ip), vehicle: saline): 0 of 6
